Data reported in the supplement of paper PMC11732987, “Enantioselective OTUD7B fragment discovery through chemoproteomics screening and high-throughput optimisation” (Communications Chemistry, 2025).
Some of the results follow. The data scatter; read single values as rough.

By UniProt entry, the sequences of proteins in these tests, tags left out. Where a name states a change or a piece, a line headed by the entry shows the natural chain unless it says otherwise.
UniProt Q07954: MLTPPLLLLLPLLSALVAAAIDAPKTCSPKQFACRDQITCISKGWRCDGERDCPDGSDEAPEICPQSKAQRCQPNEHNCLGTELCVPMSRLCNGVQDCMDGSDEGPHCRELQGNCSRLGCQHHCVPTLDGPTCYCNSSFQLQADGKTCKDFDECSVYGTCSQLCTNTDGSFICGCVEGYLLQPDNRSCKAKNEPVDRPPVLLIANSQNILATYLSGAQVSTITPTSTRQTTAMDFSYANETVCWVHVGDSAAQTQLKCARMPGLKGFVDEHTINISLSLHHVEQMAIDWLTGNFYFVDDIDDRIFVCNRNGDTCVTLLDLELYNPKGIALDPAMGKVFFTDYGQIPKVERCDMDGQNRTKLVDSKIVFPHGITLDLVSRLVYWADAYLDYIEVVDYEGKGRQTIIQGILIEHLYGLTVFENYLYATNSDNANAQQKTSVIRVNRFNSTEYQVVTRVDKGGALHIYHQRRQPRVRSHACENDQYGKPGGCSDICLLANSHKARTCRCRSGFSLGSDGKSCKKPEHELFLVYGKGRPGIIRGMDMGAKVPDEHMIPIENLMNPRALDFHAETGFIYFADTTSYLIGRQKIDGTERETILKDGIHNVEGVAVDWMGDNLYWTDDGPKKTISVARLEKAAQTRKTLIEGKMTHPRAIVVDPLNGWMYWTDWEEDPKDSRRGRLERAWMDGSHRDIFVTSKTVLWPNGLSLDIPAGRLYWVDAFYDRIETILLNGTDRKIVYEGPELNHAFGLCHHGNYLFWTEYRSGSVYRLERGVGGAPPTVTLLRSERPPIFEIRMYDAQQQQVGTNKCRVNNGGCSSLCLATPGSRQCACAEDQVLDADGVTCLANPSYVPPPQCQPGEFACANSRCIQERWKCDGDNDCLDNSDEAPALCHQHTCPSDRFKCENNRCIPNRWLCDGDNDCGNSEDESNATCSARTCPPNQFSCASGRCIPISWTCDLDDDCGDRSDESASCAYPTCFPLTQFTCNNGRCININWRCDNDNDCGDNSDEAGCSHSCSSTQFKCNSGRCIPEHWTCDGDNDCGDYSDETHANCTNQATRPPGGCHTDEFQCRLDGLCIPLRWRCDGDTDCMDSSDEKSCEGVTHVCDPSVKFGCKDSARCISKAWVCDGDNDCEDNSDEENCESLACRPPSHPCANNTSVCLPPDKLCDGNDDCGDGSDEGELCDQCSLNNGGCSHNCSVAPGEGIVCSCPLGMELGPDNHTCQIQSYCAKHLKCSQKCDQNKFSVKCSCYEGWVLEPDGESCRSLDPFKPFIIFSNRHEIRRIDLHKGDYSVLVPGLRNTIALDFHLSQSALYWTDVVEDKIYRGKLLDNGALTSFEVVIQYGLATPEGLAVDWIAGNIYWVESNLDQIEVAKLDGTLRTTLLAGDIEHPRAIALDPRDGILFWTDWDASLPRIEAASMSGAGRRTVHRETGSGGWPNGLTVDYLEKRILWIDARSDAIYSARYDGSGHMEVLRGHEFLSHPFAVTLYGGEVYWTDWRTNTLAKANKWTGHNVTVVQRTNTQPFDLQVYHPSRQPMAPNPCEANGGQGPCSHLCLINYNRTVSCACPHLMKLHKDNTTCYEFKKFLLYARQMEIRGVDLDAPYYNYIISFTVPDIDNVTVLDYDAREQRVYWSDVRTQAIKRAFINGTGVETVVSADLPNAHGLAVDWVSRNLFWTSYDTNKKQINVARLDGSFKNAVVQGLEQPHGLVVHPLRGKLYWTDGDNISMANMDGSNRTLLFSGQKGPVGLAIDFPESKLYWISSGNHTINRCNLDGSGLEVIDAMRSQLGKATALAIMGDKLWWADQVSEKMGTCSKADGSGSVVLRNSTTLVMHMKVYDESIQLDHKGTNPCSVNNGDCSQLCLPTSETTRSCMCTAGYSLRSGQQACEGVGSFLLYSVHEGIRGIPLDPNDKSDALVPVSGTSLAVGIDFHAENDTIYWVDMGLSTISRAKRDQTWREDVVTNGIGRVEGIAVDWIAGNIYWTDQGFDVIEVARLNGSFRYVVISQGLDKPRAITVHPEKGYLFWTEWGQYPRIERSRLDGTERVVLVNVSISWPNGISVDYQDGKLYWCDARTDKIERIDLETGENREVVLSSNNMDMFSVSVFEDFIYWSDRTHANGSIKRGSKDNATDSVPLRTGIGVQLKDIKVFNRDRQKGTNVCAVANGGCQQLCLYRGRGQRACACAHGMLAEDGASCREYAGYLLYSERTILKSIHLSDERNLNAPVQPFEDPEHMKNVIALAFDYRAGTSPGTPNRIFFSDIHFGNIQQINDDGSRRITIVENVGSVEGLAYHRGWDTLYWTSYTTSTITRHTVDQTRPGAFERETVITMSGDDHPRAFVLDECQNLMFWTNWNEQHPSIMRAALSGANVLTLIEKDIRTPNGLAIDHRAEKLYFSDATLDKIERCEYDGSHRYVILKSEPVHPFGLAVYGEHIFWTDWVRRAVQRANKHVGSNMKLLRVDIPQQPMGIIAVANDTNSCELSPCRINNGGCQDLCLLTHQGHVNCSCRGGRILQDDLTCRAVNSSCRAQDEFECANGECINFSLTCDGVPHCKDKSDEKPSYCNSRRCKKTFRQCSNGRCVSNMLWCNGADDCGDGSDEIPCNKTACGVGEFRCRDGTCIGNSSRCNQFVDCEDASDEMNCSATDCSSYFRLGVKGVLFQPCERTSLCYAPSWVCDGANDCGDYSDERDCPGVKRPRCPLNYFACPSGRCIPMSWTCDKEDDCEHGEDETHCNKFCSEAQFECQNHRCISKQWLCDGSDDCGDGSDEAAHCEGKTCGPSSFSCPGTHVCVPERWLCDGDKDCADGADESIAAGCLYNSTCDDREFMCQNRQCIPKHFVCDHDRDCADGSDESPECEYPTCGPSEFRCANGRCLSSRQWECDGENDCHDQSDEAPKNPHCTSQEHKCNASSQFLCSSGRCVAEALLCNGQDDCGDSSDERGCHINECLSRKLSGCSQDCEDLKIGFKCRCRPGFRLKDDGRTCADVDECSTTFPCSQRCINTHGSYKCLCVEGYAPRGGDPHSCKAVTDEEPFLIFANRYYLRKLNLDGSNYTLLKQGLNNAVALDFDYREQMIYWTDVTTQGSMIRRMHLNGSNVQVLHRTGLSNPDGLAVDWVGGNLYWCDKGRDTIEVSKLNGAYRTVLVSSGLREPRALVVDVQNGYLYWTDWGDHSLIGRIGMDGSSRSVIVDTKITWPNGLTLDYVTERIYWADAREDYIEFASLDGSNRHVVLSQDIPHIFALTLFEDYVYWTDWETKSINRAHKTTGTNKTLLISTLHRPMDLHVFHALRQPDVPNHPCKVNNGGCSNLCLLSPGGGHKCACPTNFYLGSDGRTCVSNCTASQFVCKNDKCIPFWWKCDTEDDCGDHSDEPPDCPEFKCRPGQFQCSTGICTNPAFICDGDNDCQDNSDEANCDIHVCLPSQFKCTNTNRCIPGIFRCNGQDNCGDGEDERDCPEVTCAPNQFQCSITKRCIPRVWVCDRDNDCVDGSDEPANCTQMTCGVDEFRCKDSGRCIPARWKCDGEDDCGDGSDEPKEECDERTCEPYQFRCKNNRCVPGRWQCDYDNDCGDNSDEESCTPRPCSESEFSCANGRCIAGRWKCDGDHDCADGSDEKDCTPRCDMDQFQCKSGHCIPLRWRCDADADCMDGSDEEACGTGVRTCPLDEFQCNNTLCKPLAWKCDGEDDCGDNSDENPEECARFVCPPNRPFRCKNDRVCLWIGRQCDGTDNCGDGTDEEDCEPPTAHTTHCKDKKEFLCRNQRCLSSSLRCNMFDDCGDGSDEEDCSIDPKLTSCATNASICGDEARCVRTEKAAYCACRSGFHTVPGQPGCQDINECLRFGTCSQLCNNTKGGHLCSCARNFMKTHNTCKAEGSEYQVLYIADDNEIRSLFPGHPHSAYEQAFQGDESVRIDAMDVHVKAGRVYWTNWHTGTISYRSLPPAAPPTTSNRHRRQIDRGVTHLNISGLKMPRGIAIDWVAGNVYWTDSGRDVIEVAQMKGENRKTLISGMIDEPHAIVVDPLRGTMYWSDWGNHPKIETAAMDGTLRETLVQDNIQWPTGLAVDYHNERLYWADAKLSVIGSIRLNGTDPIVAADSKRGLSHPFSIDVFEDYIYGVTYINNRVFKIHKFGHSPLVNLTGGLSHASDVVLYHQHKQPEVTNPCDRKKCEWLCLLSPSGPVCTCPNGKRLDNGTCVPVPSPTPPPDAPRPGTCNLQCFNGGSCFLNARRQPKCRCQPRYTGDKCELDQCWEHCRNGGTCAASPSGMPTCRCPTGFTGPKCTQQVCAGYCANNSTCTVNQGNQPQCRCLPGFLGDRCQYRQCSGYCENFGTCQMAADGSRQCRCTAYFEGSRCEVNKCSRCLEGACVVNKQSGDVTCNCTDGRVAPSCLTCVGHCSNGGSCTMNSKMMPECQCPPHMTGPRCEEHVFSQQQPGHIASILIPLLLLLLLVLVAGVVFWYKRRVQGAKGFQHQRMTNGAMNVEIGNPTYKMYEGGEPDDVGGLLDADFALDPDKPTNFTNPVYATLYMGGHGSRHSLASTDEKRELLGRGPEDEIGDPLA
UniProt Q9Y2U8: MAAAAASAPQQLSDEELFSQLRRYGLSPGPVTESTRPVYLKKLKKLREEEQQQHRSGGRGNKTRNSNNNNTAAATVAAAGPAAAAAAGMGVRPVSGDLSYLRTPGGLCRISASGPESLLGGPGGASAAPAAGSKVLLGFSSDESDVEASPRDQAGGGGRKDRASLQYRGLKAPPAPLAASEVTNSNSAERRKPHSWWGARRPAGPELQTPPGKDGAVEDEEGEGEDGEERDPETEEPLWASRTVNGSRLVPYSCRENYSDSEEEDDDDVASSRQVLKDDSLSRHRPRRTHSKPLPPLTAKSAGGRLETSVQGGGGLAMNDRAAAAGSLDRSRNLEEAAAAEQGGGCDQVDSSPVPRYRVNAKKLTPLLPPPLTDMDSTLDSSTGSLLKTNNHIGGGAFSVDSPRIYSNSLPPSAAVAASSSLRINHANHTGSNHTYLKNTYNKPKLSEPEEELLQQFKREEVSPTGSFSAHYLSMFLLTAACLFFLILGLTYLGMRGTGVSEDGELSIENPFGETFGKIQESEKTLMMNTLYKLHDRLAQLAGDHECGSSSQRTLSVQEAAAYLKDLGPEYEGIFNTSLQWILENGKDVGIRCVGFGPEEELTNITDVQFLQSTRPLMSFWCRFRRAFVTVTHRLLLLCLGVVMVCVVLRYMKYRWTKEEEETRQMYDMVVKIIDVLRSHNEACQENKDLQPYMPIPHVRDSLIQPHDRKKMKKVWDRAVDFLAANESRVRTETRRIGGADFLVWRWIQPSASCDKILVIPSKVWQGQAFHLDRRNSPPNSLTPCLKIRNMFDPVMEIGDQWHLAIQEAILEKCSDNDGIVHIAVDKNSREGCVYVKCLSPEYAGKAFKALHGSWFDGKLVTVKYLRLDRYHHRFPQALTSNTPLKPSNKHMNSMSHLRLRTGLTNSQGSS
UniProt Q2M2Z5: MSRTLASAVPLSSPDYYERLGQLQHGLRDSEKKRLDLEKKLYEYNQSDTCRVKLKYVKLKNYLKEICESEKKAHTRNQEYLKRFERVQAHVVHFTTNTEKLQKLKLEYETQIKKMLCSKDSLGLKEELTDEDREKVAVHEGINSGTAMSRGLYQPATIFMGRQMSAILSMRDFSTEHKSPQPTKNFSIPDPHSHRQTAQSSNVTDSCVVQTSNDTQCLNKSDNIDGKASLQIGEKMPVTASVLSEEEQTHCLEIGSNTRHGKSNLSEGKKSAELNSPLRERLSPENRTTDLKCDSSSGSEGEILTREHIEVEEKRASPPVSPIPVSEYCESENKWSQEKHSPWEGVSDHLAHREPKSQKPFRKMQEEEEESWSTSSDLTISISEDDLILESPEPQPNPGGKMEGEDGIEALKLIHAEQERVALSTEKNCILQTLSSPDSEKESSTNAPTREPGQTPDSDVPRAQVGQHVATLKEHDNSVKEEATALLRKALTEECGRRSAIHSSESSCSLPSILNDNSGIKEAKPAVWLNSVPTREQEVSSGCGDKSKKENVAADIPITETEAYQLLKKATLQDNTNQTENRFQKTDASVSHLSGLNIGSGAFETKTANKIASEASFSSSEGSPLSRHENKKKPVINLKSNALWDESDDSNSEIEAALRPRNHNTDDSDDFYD

Experiments:
[1] = compound: ClCC(=O)N[C@@H]1CCCc2ccccc12; experiment: log2 mean competition ratio of IA-DTB cysteine labelling (DMSO/compound) (log2 ratio); higher = stronger cysteine engagement by compound; details: treatment time: 4 h, cell line lysate: HEK293T
Experimental: (§1)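 IA-DTB competitive cysteine chemoproteomics in HEK293T RIPA lysate. Lysates were treated with compound 29 or 30 at 50 or 200 µM for 4 h, then IA-DTB (500 µM, 1 h), trypsin-digested, NeutrAvidin-enriched and analysed by diaPASEF. Competition ratio = intensity DMSO / intensity compound (n=4 treated, n=64 DMSO); binding: mean log2 CR ≥ 1 and p ≤ 0.05 plus QC filters. Target is the cysteine site.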

[2] = compound: ClCC(=O)N[C@H]1CCCc2ccccc12; experiment: as above; details: treatment time: 4 h, cell line lysate: HEK293T
Experimental: as §1

Target	log2 mean competition ratio ([1]; 50 µM)	log2 mean competition ratio ([1]; 200 µM)	log2 mean competition ratio ([2]; 50 µM)	log2 mean competition ratio ([2]; 200 µM)
LAS1L C690 (UniProt Q9Y4W2)	-0.123	0.241	0.0326	0.213
LONRF3 C511	-0.163			0.123
LMNB2 C212 (UniProt Q03252)	0.0691	0.195	-0.802	0.083
LRP1 C2517 (UniProt Q07954)	-0.000915	0.628	0.0161	0.755
LIG3 C499 (UniProt P49916)	0.535	0.224	0.319	0.122
LARS1 C1093	-0.271	0.272	-0.21	0.365
LEMD3 C254 (UniProt Q9Y2U8)		-0.0191		0.197
LEMD3 C754 (UniProt Q9Y2U8)	0.0865	0.114	0.208	0.0921
LLGL2 C280 (UniProt Q6P1M3)	0.0286	0.188	-0.421	0.0456
LOC100421372 C210	-0.0378	0.0455	0.0294	0.107
LARS2 C177 (UniProt Q15031)	-0.233	-0.0262	-0.414	-0.25
LARP4B C590 (UniProt Q92615)	0.0172	-0.0435	0.359	0.0498
LARP4B C167 (UniProt Q92615)		0.182	0.312	0.223
KRI1 C531 (UniProt Q8N9T8)	0.42	0.334	-0.337	-0.12
KIZ C50 (UniProt Q2M2Z5)	0.217		0.0324	0.903
KMT2D C5230 (UniProt O14686)	-0.104	0.0753	-0.859	-0.182
LRBA C982	-0.16	-0.103	-0.522	-0.217
LIMA1 C164 (UniProt Q9UHB6)	0.0295	-0.0377	0.0523	-0.0149

Two entries from above, in markdown:

| Target | log2 mean competition ratio ([1]; 50 µM) | log2 mean competition ratio ([1]; 200 µM) | log2 mean competition ratio ([2]; 50 µM) | log2 mean competition ratio ([2]; 200 µM) |
| --- | --- | --- | --- | --- |
| LMNB2 C212 (UniProt Q03252) | 0.0691 | 0.195 | -0.802 | 0.083 |
| LRP1 C2517 (UniProt Q07954) | -0.000915 | 0.628 | 0.0161 | 0.755 |
